In the DeepSol protein solubility set:

Experiment: soluble on expression in E. coli; label from the status in PepcDB or PDB records

Sequence	soluble on expression in E. coli
MSLKGVSIALTCRAFEVSETCYRYSPKIDDENEQIADLLLGLVKAKKTWGFGLCFLYMRNVQGHGWNHKRVYRIYRELELNLRIKPRKRLKRDKPEALTVPEAANEVWSMDFMADRLGDGRQFRLLNVLDDFNREGVGIEVDFSLPAERVVRALNQIIEWRGAPKTIRVDNGPEYISGTLMEWAEHQGIALAHIQPRKPQQNAYVERYNRTVRHEWLDLHIFETIDQVQQIATEWLWSYNNERPNMGNGGMTPAQKLRMAAEGHHHHHH	not soluble
MSSLVSISKKLSGQRQHRERSQPEARRKYGELEKKKDYKLRAEDYQKKRDTIKKLKKSAMDKNQDEYHHHMVNSETWADGRHFDKKTEAEETETQIQKKLGSLKDLEYVKFKLNEEKKKIDEMKGELHFADSSLNGKGNTHTVFVDTDSEAKSFDPRVYFDTTTSMLSRQFNRLKNEDFQNKTIIGAGTKEQVRKADRVRRTRYNELIKRVERAKELQVVVDKLELKKQLAAGSKSELKPQKVKKAKAMRAAVYKWTYERKK	not soluble
MSSYLDDLRIDLAASPASGGSASIAVGSFNIPYEVTRRLKGVGADADTTLTSCASWTQLQKLYEQYGDEPIKKHFETDSERGQRYSVKVSLGSKDENFLFLDYSKSHINDEIKCALLRLAEERGIRQFVQSVFRGERVNTTENRPVLHIALRNRSNRPIYVDGKDVMPAVNKVLDQMRSFSEKVRTGEWKGHTGKAIRHVVNIGIGGSDLGPVMATEALKPFSQRDLSLHFVSNVDGTHIAEVLKSIDIEATLFIVASKTFTTQETITNALSARRALLDYLRSRGIDEKGSVAKHFVALSTNNQKVKEFGIDEENMFQFWDWVGGRYSMWSAIGLPIMISIGYENFVELLTGAHVIDEHFANAPPEQNVPLLLALVGVWYINFFGAVTHAILPYDQYLWRLPAYLQQLDMESNGKYVTRSGKTVSTLTGPIIFGEAGTNGQHAFYQLIHQGTNLIPCDFIGAIQSQNKIGDHHKIFMSNFFAQTEALMIGKSPSEVRRELEAAGERSAEKINALLPHKTFIGGRPSNTLLIKSLTPRALGAIIAMYEHKVLVQGAIWGIDSYDQWGVELGKVLAKSILPQLRPGMRVNNHDSSTNGLINMFNELSHLHHHHHH	soluble
MSTPQSEPGSEPGSPGENENSMETQYSQGSFPEVAVEPEPEPEPEPEPEPEPEPEPEPEPEPKPKPEVEPVPQPEPEPEYQPEPEPEPEVEPEPEPEPVPEPEPEPEPEPEPVVEKEEEVVVESPPREQEPEKSGKSKPSSPIPDAPTMEDIAPRELESLNFSETSGTSDQQADRIMQNNENERVEEKKQMSPTPSQPQHKTPQRSGIRPPTAILRQPKPIPASLPRPATATPSSQRAISTPRQTASTAPSPRPISKMSRERSDVQKSTSTRSIDNVGRMTPKVNAKFVNVKSKVGSVTNHKAGGGNVEIFSEKRLYNAQSKVGSLKNATHVAGGGNVQIENRKLDFSAASPKVGSKTNYQPAKSDVKIVSEKLTWQAKSKVGSMDNAAHKPAGGNVQILSQKLNWKAESKVGSKDNMNHRPGGGNVQIFDEKIRYVSTDSSRNHSTLDISSL	soluble
PGSSVSGTFGCLGGRLTIPGTGVSLLVPNGAIPQGKFYDLYLRINKTESTLPLSEGSQTVLSPSVTCGPTGLLLCRPVVLTVPHCAEVIAGDWIFQLKTQAHQGHWEEVVTLDEETLNTPCYCQLEAKSCHILLDQLGTYVFTGESYSRSAVKRLQLAIFAPALCTSLEYSLRVYCLEDTPAALKEVLELERTLGGYLVEEPKPLLFKDSYHNLRLSLHDIPHAHWRSKLLAKYQEIPFYHVWNGSQKALHCTFTLERHSLASTEFTCKVCVRQVEGEGQIFQLHTTLAETPAGSLDALCSAPGNAATTQLGPYAFKIPLSIRQKICNSLDAPNSRGNDWRLLAQKLSMDRYLNYFATKASPTGVILDLWEARQQDDGDLNSLASALEEMGKSEMLVAMTTDGDC	soluble
RFTWSMKTTSSMDPSDMMREIRKVLDANNCDYEQRERFLLFCVHGDGHAENLVQWEMEVCKLPRLSLNGVRFKRISGTSIAFKNIASKIANELKL	soluble
RNQALIKKGMEAIPVAGGAFSNYYRGGFDQKMSRAEAAKILGVAPSAKPAKIKEAHKKVMIVNHPDRGGSPYLAAKINEAKDLMESSKS	not soluble
SGSSRLRVFDPHLERKDSAAALSDRELPLPTFDVPYFKYIDEEDEDDEWSSRSQSSTEDDSVDSLLSDRYVVVSGTPEKILEHLLNDLHLEEVQDKETETLLDDFLLTYTVFMTTDDLCQALLRHYSAKKYQGKEENSDVPRRKRKVLHLVSQWIALYKDWLPEDEHSKMFLKTIYRNVLDDVYEYPILEKELKEFQKILGMHRRHTVDEYSPQKKNKALFHQFSLKENWLQHRGTVTETEEIFCHVYITEHSYVSVKAKVSSIAQEILLCSQLGKRVQLVKKFIKIAAHCKAQRNLNSFFAIVMGLNTASVSRLSQTWEKIPGKFKKLFSELESLTDPSLNHKAYRDAFKKMKPPKIPFVPLLLKDVTFIHEGNKTFLDNLVNFEKLHMIADTVRTLRHCRTNQFGDLSPKEHQELKSYVNHLYVIDSQQALFELSHRIEPRV	soluble
SLKIDIHTHILPKEWPDLEKRFGYGGWVQLQQQGKGEAKMMKDGKVFRVIQQNCWDPEVRIREMNQKGVTVQALSTVPVMFSYWAKPKDTLELCQFLNNDLAATVARYPRRFVGLGTLPMQAPGLAVEEMERCVKELGFPGIQIGSHINMWDLNDPELFPIYTAAERLNCSLFVHPWDMQMDGRMAKYWLPWLVGMPSETTTAICSMIMGGVFEKFPKLKVCFAHGGGAFPFTIGRIAHGFNMRPDLCARDNSSDPRKYLGSFYTDSLVHDPLSLKLLTDVIGKDRVILGTDYPFPLGEQEPGKLIESMADFDEETKDKLTAGNALTFLGLERKLFE	soluble
